Measurements reported in PubChem BioAssay AID1159578 (Peter MacCallum Cancer Centre, 2015).
The deposit covers about 18,000 reagents; below is an unselected part. About 1,030 of all reagents (5.7%) count as active. 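Inactive calls also include pools with fewer than 3300 nuclei, whose migration was not assessed.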 The raw values are shown without normalisation. Reagents against one gene are numbered here. Not all columns of the deposit are shown.

Purpose: 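Genome-wide hunt for genes controlling movement of lymphatic endothelial cells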 (primary screen)
Cells: human lymphatic endothelial cells
Reagents: siRNA pool against human genes, 40 nM
Time to read-out: 48 h after transfection
Detection: 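High-content imaging of dye-stained cells in a scratch assay measures filled wound area and nuclei per well; duplicate means given as ratio to mock and robust z-score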
Scale: migration robust z-score: higher = faster migration into the scratch; nuclei per well: higher = more cells in the well
Active means: 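Migration changed when robust z exceeds 2 or falls below -2 and mean nuclei number is at least 3300; otherwise not called changed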
Calls: active = migration changed; inactive = no migration change, or too few cells

SNHG29
- migration robust z-score: 2.76
- migration class with cell-count check: migration z above 2; enough cells
- nuclei per well, duplicate mean: 6957
- Outcome: active

CSNK1G3
- migration robust z-score: -3.38
- migration class with cell-count check: migration z below -2; enough cells
- nuclei per well, duplicate mean: 3527
- Outcome: active

TMCC2
- migration robust z-score: 0.87
- migration class with cell-count check: migration z between -2 and 2; enough cells
- nuclei per well, duplicate mean: 6389
- Outcome: inactive

EFHB
- migration robust z-score: 1.02
- migration class with cell-count check: migration z between -2 and 2; enough cells
- nuclei per well, duplicate mean: 6786
- Outcome: inactive

RCC1 #1
- migration robust z-score: 0.7
- migration class with cell-count check: migration z between -2 and 2; enough cells
- nuclei per well, duplicate mean: 5118
- Outcome: inactive

RCC1 #2
- migration robust z-score: 0.44
- migration class with cell-count check: migration z between -2 and 2; enough cells
- nuclei per well, duplicate mean: 6311
- Outcome: inactive

KRT28
- migration robust z-score: -0.55
- migration class with cell-count check: migration z between -2 and 2; enough cells
- nuclei per well, duplicate mean: 6428
- Outcome: inactive

DEFB108B
- migration robust z-score: 1.34
- migration class with cell-count check: migration z between -2 and 2; enough cells
- nuclei per well, duplicate mean: 5880
- Outcome: inactive

ATP4A
- migration robust z-score: 0.18
- migration class with cell-count check: migration z between -2 and 2; enough cells
- nuclei per well, duplicate mean: 5258
- Outcome: inactive

DLG1
- migration robust z-score: -0.16
- migration class with cell-count check: migration z between -2 and 2; enough cells
- nuclei per well, duplicate mean: 6600
- Outcome: inactive

ACVR1C
- migration robust z-score: 1.29
- migration class with cell-count check: migration z between -2 and 2; enough cells
- nuclei per well, duplicate mean: 3546
- Outcome: inactive

WWP2
- migration robust z-score: -0.94
- migration class with cell-count check: migration z between -2 and 2; enough cells
- nuclei per well, duplicate mean: 6573
- Outcome: inactive

Single entries from the list.
ATP4A, migration robust z-score: 0.18
ACVR1C, migration robust z-score → 1.29
